Patent publication US20250206725A1, “MODULATORS OF THR-BETA AND METHODS OF USE THEREOF” (Aligos Therapeutics, Inc., priority 2023, published 2025)

How the values were obtained:
[1] = 10 μM, 37° C., 120 min
[2] = similar to one another

Compound | parent remaining in rat hepatocytes [1] [%] | metabolic stability in mouse liver microsomes [2]
CC(C)c1cc(Oc2c(Cl)cc(-n3nc(N)c(=O)[nH]c3=O)cc2Cl)n[nH]c1=O [Compound A] | 90 | high metabolic stability
[2H]C([2H])([2H])C([2H])(c1cc(Oc2c(Cl)cc(-n3nc(N)c(=O)[nH]c3=O)cc2Cl)n[nH]c1=O)C([2H])([2H])[2H] [Compound 1, 6-amino-2-(3,5-dichloro-4-((6-oxo-5-(propan-2-yl-d7)-1,6-dihydropyridazin-3-yl)oxy)phenyl)-1,2,4-triazine-3,5-(2H, 4H)-dione] | 95 | high metabolic stability
